Among the data in PubChem BioAssay AID248 (DTP/NCI, 2004) are survivor count and T/C values, retold here.

The list shows only some results of the screen, not a fair sample: it gathers tests that were run many times, whatever their T/C, doses with no T/C, and many T/C values between a quarter and a half above the control. Other doses and runs of a compound stand elsewhere. T/C is the treated group as % of the vehicle group. Some doses have a count of surviving animals in place of a T/C: the source files T/C as zero there, which appears to mark a toxic dose or a test without result, not a measured value. Some doses without a T/C left all or most animals alive at the check, yet need not have been tolerated: survival well below the control is almost never listed, so the zero probably covers shortened survival too. Counts of survivors are from the toxicity check (mostly the fifth day) where no day follows; animals may have died later. Schedule codes are those of the source, taken here to give the interval after Q, in days (D) or hours (H), and the number of doses after X. Some schedule codes hold Z or #, which are not explained here. Where survival is the endpoint, this PubChem deposit counts one and a half times the control or more as active, and values a quarter to a half above the control carry no call in these data; other NCI protocols may use other cut-offs.

The assay has as its system L1210 leukemia ip in BDF1 mice, survival T/C. Put plainly: NCI In Vivo Anticancer Drug Screen. Data for tumor model L1210 Leukemia (intraperitoneal) in B6D2F1 (BDF1) mice. To be noted: T/C endpoint: mean survival time, higher T/C = longer survival.
Where [1] appears, read: dose: 400.0 mg/kg/injection, schedule: Q04DX003 (ip), vehicle: saline.
The mark [2] stands for this setting: dose: 200.0 mg/kg/injection, schedule: Q04DX003 (ip), vehicle: saline.
[3] abbreviates: dose: 100.0 mg/kg/injection, schedule: Q01DX009 (ip), vehicle: Klucel (hydroxypropylcellulose) (HPC).
The mark [4] stands for this setting: dose: 200.0 mg/kg/injection, schedule: Q01DX009 (ip), vehicle: Klucel (hydroxypropylcellulose) (HPC).
Where [5] appears, read: dose: 400.0 mg/kg/injection, schedule: Q01DX009 (ip), vehicle: Klucel (hydroxypropylcellulose) (HPC).
The mark [6] stands for this setting: dose: 400.0 mg/kg/injection, schedule: Q01DX001 (ip), vehicle: saline.
[7] abbreviates: dose: 100.0 mg/kg/injection, schedule: Q01DX009 (ip), vehicle: saline with Tween-80.
Setting [8] is: dose: 200.0 mg/kg/injection, schedule: Q01DX009 (ip), vehicle: saline with Tween-80.
Where [9] appears, read: dose: 400.0 mg/kg/injection, schedule: Q01DX009 (ip), vehicle: saline with Tween-80.
Setting [10] is: dose: 200.0 mg/kg/injection, schedule: Q04DX002 (ip), vehicle: saline with Tween-80.
[11] abbreviates: dose: 400.0 mg/kg/injection, schedule: Q04DX002 (ip), vehicle: saline with Tween-80.

As for `N\C([S-])=N/N=C\C(=N/N=C(\N)[S-])C(O)C(O)C(O)CO.[Pd+2]` (stereo unspecified), the survivor count under setting [1] is listed as 5 of 6.

On to `CCN1CCC(CCOC)(CN2c3ccccc3Sc3ccccc32)C1` (stereo unspecified), for which the survivor count is, setting by setting: (dose: 100.0 mg/kg/injection, schedule: Q04DX003 (ip), vehicle: saline) 2 of 6; under setting [2], 2 of 6; under setting [1], 0 of 6.

In the case of `Cc1nnc([N+](=O)[O-])s1`, the survivor count runs as follows: under setting [3], 0 of 6; under setting [4], 0 of 6; under setting [5], 0 of 6.

On to `CCCCCCCCCCN1CCC(N2CCCCC2)CC1`, for which the survivor count runs as follows: (dose: 200.0 mg/kg/injection, schedule: Q04DX002 (ip), vehicle: saline) 0 of 3; (dose: 400.0 mg/kg/injection, schedule: Q04DX002 (ip), vehicle: saline) 0 of 3.

Take `CCOP(=S)(N1CC1C)N1CC1C` (stereo unspecified): the survivor count (dose: 400.0 mg/kg/injection, schedule: Q01DX Z (ip), vehicle: carboxymethylcellulose (CMC)) was 5 of 6.

For `N#CC1(Nc2ccc(-c3ccc(Cl)cc3)cc2)CCCC1`, the survivor count (dose: 400.0 mg/kg/injection, schedule: Q01DX001 (ip), vehicle: carboxymethylcellulose (CMC)) was 4 of 4.

Turning to `NC(N)=N/N=C/c1c2ccccc2cc2ccccc12`, the survivor count runs as follows: (dose: 60.0 mg/kg/injection, schedule: Q01DX Z (ip), vehicle: carboxymethylcellulose (CMC)) 3 of 6; (dose: 120.0 mg/kg/injection, schedule: Q01DX Z (ip), vehicle: carboxymethylcellulose (CMC)) 0 of 6; (dose: 480.0 mg/kg/injection, schedule: Q01DX Z (oral), vehicle: carboxymethylcellulose (CMC)) 5 of 6.

Regarding `Cc1cc(C)c2ccc(Cl)nc2n1`, the survivor count under setting [3] is reported as 3 of 6.

`C=CCOC(=O)c1ccco1`: the survivor count is 3 of 6 under setting [4] and 0 of 6 under setting [5].

As for `CC(=O)OCC1OC(N2C(=O)/C(=C/c3ccc(Cl)cc3)SC2=S)C(OC(C)=O)C(OC(C)=O)C1OC(C)=O` (stereo unspecified), the survivor count is 6 of 6 (dose: 50.0 mg/kg/injection, schedule: Q01DX005 (ip), vehicle: other); 5 of 6 (dose: 100.0 mg/kg/injection, schedule: Q01DX005 (ip), vehicle: other); 1 of 6 (dose: 200.0 mg/kg/injection, schedule: Q01DX005 (ip), vehicle: other); 0 of 6 (dose: 400.0 mg/kg/injection, schedule: Q01DX005 (ip), vehicle: other).

Take `CC(=O)OCC1C(C)CCC1C(C)(C)OC(C)=O` (stereo unspecified): the survivor count is given as 0 of 6 (dose: 200.0 mg/kg/injection, schedule: Q01DX001 (ip), vehicle: saline) and 1 of 6 under setting [6].

`CCCCCCCC(O)CCC(=O)NN` (stereo unspecified): the survivor count runs as follows: under setting [7], 5 of 6; under setting [8], 2 of 6; under setting [9], 1 of 6.

With `CC(=O)c1cccc(NC(=O)Oc2ccc(F)cc2Cl)c1`, the survivor count under setting [5] is listed as 4 of 6.

Consider `CCCCCCCCC1NC1CCCCCCCC` (stereo unspecified), for which the survivor count reads like this: (dose: 100.0 mg/kg/injection, schedule: Q04DX002 (ip), vehicle: saline with Tween-80) 3 of 3; under setting [10], 1 of 3; (dose: 400.0 mg/kg/injection, schedule: Q04DX002 (ip), vehicle: other) 0 of 3; under setting [11], 0 of 3.

Consider `CCN(CC)c1ccc(/C=N/N=C(N)N)cc1`, for which the survivor count is, setting by setting: (dose: 30.0 mg/kg/injection, schedule: Q01DX Z (ip), vehicle: other) 0 of 6; (dose: 62.5 mg/kg/injection, schedule: Q01DX Z (ip), vehicle: saline) 0 of 6; (dose: 125.0 mg/kg/injection, schedule: Q01DX Z (ip), vehicle: saline) 0 of 6; (dose: 250.0 mg/kg/injection, schedule: Q01DX Z (ip), vehicle: saline) 0 of 6; (dose: 500.0 mg/kg/injection, schedule: Q01DX Z (ip), vehicle: saline) 0 of 6.

With `O=[N+]([O-])c1ccc(-c2ccc([N+](=O)[O-])c(-c3ccccc3)c2)cc1`, the survivor count (dose: 400.0 mg/kg/injection, schedule: Q04DX003 (ip), vehicle: saline with Tween-80) is recorded as 6 of 6.

Consider `O=c1[nH]c(=O)n(C2SC(CO)C(O)C2O)cc1F` (stereo unspecified), for which the survivor count (dose: 25.0 mg/kg/injection, schedule: Q04DX003 (ip), vehicle: saline) is recorded as 6 of 6.

Consider `CNC(=S)n1ncnc1NC=O`, for which the survivor count is on record as 1 of 6 (dose: 200.0 mg/kg/injection, schedule: Q04DX003 (ip), vehicle: acetone) and 0 of 6 (dose: 400.0 mg/kg/injection, schedule: Q04DX003 (ip), vehicle: acetone).

For the molecule `CC(CC(C)O)=NCCN=C(C)CC(C)O.[Ni]` (stereo unspecified), where the note is “dose: 25.0 mg/kg/injection, schedule: Q01DX009 (ip), vehicle: saline with Tween-80”, the survivor count is listed as 6 of 6.

As to `O=C(N/N=C\c1cc(=O)[nH]c(=O)[nH]1)c1ccncc1`, the survivor count under setting [6] is given as 2 of 4.

With `Cc1cc(N(CCOS(C)(=O)=O)CCOS(C)(=O)=O)ccc1C=Nc1ccc(C(=O)O)c(O)c1`, the T/C (dose: 9.0 mg/kg/injection, schedule: Q01DX009 (ip), vehicle: saline with Tween-80) was 125 % of control. Moreover, the survivor count reads like this: under setting [7], 2 of 6; under setting [8], 2 of 6; under setting [9], 0 of 6.

Consider `O=C(C[n+]1ccccc1Br)c1cccc2ccccc12`, for which the survivor count is listed as 0 of 6 (dose: 18.75 mg/kg/injection, schedule: Q01DX001 (ip), vehicle: other); 0 of 6 (dose: 37.5 mg/kg/injection, schedule: Q01DX001 (ip), vehicle: other); 0 of 6 (dose: 75.0 mg/kg/injection, schedule: Q01DX001 (ip), vehicle: other); 0 of 6 (dose: 150.0 mg/kg/injection, schedule: Q01DX001 (ip), vehicle: other); 0 of 6 (dose: 300.0 mg/kg/injection, schedule: Q01DX001 (ip), vehicle: other).

On to `O=C(CCN1CCCC1)c1ccc2ccccc2c1`, for which the survivor count under setting [10] was 0 of 3 and the survivor count under setting [11] was 0 of 3.

Turning to `O=C1NC(c2cccc(Cl)c2)N2C(=O)NC(c3cccc(Cl)c3)N12` (stereo unspecified), the survivor count (dose: 200.0 mg/kg/injection, schedule: Q01DX009 (ip), vehicle: gum acacia) is given as 6 of 6.

Turning to `CN1CCN(CCCN2c3ccccc3Sc3ccc(Cl)cc32)CC1`, where the note is “dose: 400.0 mg/kg/injection, schedule: Q04DX002 (ip), vehicle: Klucel (hydroxypropylcellulose) (HPC)”, the survivor count is 1 of 3.

As for `Cc1cccc(Cl)c1NC(=O)c1cc([N+](=O)[O-])cc([N+](=O)[O-])c1`, under setting [5], the survivor count was 6 of 6.

Consider `O=C(CI)NCc1cn(C2CC(O)C(CO)O2)c(=O)[nH]c1=O` (stereo unspecified), for which the survivor count (dose: 200.0 mg/kg/injection, schedule: Q01DX005 (ip), vehicle: water) is given as 1 of 3.

As for `COc1ccc(I)c([N+](=O)[O-])c1`, the survivor count under setting [5] is 5 of 6.

As to `CCOC(=O)/C(C#N)=N\O`, the survivor count runs as follows: (dose: 200.0 mg/kg/injection, schedule: Q01DX009 (ip), vehicle: saline) 0 of 6; under setting [2], 0 of 6; under setting [1], 0 of 6.

For `Cc1ccc([N+](=O)[O-])cc1NC(=O)Nc1cccc(C(F)(F)F)c1`, the survivor count under setting [3] was 6 of 6.

Regarding `CCOc1ccc(NC(=O)Nc2cccc3ccccc23)cc1`, the survivor count (dose: 200.0 mg/kg/injection, schedule: Q04DX003 (ip), vehicle: Klucel (hydroxypropylcellulose) (HPC)) is given as 1 of 6.

In the case of `Cc1cccc(Nc2cc(N)nc(N)n2)c1`, the survivor count by setting is: (dose: 25.0 mg/kg/injection, schedule: Q01DX Z (ip), vehicle: methylcellulose (MC)) 5 of 6; (dose: 100.0 mg/kg/injection, schedule: Q01DX Z (ip), vehicle: methylcellulose (MC)) 0 of 6; (dose: 200.0 mg/kg/injection, schedule: Q01DX Z (ip), vehicle: methylcellulose (MC)) 0 of 6.
